SMILES strings stand for the structures. Among all 1,200 compounds or so, fewer than 10 were called active. The call rests on the fitted dose curve; in most records, active means well fitted curve in the direction sought with a large enough effect; inconclusive means small, poorly fitted or top-dose-only effect, or another doubt; inactive means no such curve, though single readings can be large or run the other way. The list shows a part of the results.

Amino acid sequences for entries named in this document (tags omitted). A change or cut given only in a name is not applied to a line headed by its entry.
UniProt P11308: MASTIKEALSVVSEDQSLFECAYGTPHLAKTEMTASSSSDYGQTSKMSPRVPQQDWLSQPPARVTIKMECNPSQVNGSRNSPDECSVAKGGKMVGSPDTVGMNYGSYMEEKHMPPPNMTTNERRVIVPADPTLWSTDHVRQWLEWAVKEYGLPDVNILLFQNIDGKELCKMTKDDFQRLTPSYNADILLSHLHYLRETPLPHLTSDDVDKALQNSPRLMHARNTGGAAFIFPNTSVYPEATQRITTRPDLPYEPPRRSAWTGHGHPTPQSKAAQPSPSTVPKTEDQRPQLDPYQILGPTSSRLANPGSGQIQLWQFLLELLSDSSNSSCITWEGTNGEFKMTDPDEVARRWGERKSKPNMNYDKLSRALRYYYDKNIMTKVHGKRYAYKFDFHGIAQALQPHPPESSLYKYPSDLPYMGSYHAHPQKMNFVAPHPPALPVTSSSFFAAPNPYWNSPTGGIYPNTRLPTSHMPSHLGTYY

This test concerns the target Transcriptional regulator ERG (Homo sapiens) (UniProt P11308). The test can be described thus: qHTS for Small Molecule Inhibitors of the ERG Ets/DNA interaction: TR assay against cherry picks. Further: % of control where 0% means no effect. The note with it: ERG Ets domain-DNA fluorescence polarization, Texas red probe; at 154 µM (top of the series). A digest of the protocol: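 Polarization read sequentially for fluorescein (ex 480/em 535 nm) and Texas red (ex 555/em 632 nm) probes, 5 nM and 100 nM solutions, displaced from His-ERG Ets domain (1 uM solution), pH 7.5 Tris/KCl/EDTA/DTT buffer.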
A general note: qHTS replaces the single test concentration by a dilution series.
In the case of `CC(=O)OCC(=O)C1=CCC2C3CCC4=CC(=O)C=CC4(C)C3(F)C(OC(C)=O)CC12C` (centres undefined), the activity change, negative = inhibition was inactive: -1.19%.
Take `O=C(c1ccc(CS(=O)c2ccccc2Cl)o1)N1CCN(c2ccccn2)CC1` (centres undefined): the activity change, negative = inhibition is inactive: 2.68%.
Then `CCN(CC)S(=O)(=O)c1cccc(-c2nc3n(n2)Cc2ccccc2-3)c1`, with inactive: 17%; and `O=C(NC(=S)NNC(=O)c1ccccc1O)c1cccc([N+](=O)[O-])c1`, with inactive: -6.41%; and `COc1cc(OC)c(OC)cc1/C=N/NC(=O)c1cccc(S(=O)(=O)N2CCOCC2)c1`, with inactive: -24.6%.
In the case of `O=C(c1ccco1)N(Cc1ccc2c(c1)OCO2)Cc1cc2cc3c(cc2[nH]c1=O)OCO3`, the activity change, negative = inhibition was inactive: 0.603%.
Regarding `COc1ccc(S(=O)(=O)N2CCCC(C(F)(F)F)C2)cc1` (centres undefined), the activity change, negative = inhibition is inactive: -12.3%.
Then `CC(C)CC(=O)CN1C(=O)C2(OCCO2)c2ccccc21`, with inactive: -1.61%.
With `COC(=O)c1sccc1NC(=O)c1ccccc1Br`, the activity change, negative = inhibition was inactive: 3.3%.
Regarding `CNC(=O)C(=O)NCCN1CCN(C(=O)c2ccc([N+](=O)[O-])cc2)CC1`, the activity change, negative = inhibition was inactive: 6.81%.
As for `Cn1c(SCc2nnc(-c3ccccc3)o2)nc2ccccc21`, the activity change, negative = inhibition was inactive: 2.98%.
Then `CCN(CC)CCN1C(=O)C(O)=C(C(C)=O)C1c1ccccc1[N+](=O)[O-]` (centres undefined), with inactive: 14.1%; and `CCCC(=O)Nc1ccc(C(=O)Nc2nnc(COCC)s2)cc1`, with inactive: -14.2%.
Then `CCc1ccc(-c2cc(C(F)(F)F)n3nc(C(=O)Nc4cnn(Cc5ccc(C)cc5)c4)cc3n2)s1`, with inactive: -2.57%; and `CCN(CC)c1ccc2cc(-c3nc(-c4cc(OC)c(OC)c(OC)c4)no3)c(=O)oc2c1`, with inactive: 9.56%; and `O=[N+]([O-])c1ncccc1OCc1ccc(-c2ccccc2)cc1`, with inactive: 2.88%.
As for `CCOc1ccc(-c2cc(C(=O)OC)[nH]n2)cc1`, the activity change, negative = inhibition is inactive: -15.6%.
`CCCN(C(=O)c1nn(-c2ccc(C)cc2)c(=O)c2c1c1ccccc1n2C)c1ccccc1C`: the activity change, negative = inhibition is inactive: -5.76%.
Then `Cc1ccc2c(c1)N(CC(=O)NC1CCCc3ccccc31)C(=O)CO2` (centres undefined), with inactive: -9.33%.
Then `CCOc1cc(NC(=S)NCC(C)C)c(OCC)cc1NC(=O)c1ccco1`, with inactive: -6.3%.
Then `Cc1ccc(N(CC(=O)NC2CCCC2)C(=O)CNC(=O)c2cccs2)c(C)c1`, with inactive: -7.05%; and `CC1(C)CC(=O)C(C(O)c2ccccc2)C(C)(C)N1` (centres undefined), with inactive: -0.45%.
Take `CCOc1ccccc1N1CCN(CC(=O)c2c(N)n(C)c(=O)n(C)c2=O)CC1`: the activity change, negative = inhibition was inactive: -9.83%.
Then `COc1ccc(CCNC(=O)CSc2n[nH]c(N)n2)cc1`, with inactive: 1.38%; and `CCOC(=O)c1ccc(NC(=O)c2cn(-c3ccccc3)nc2-c2ccc(OC)c(OC)c2)cc1`, with inactive: -9.46%; and `CC(=O)C1=C(O)C(=O)N(c2nccs2)C1c1ccccc1` (centres undefined), with inactive: 6.49%.
For the compound `CCOC(=O)C1=C(C)N(C[C@@H]2CC[C@@H](Cc3ccc(-c4ccccc4)cc3)O2)C(=O)NC1c1ccc([N+](=O)[O-])cc1` (some centres undefined), the activity change, negative = inhibition is inactive: 0.997%.
With `CCOC(=O)c1c(-c2ccccc2)csc1NC(=O)c1cc(-c2ccc(C)c(F)c2)on1`, the activity change, negative = inhibition is inactive: -12.7%.
Regarding `COCC(=O)NC1CCN(S(=O)(=O)c2cccc(C(C)=O)c2)CC1`, the activity change, negative = inhibition was inactive: -1.12%.
Then `CCOc1ccc(NS(=O)(=O)c2ccc(NC(C)=O)c(OC)c2)cc1`, with inactive: -4.62%.
Turning to `CC(C)N1CCN(Cc2ccc(Sc3nncn3C)o2)CC1CCO` (centres undefined), the activity change, negative = inhibition is inactive: 6.4%.
With `Cn1c(CO)cnc1SCc1ccc(F)cc1`, the activity change, negative = inhibition was inactive: 18.1%.
Then `CCOc1ccccc1NC(=O)COc1ccc2ccc(=O)oc2c1`, with inactive: 13.9%.
Then `O=C(Nc1cc(-c2nc3cc(Cl)ccc3o2)ccc1Cl)c1cccs1`, with inactive: 51%; and `Cc1c(C(=O)Cc2ccccc2)n(C)c2ccccc12`, with inactive: -7.16%.
Then `O=C(Nc1cc(C(F)(F)F)ccc1N1CCCCC1)c1cccc([N+](=O)[O-])c1`, with inactive: 0.649%; and `N#CC(C(=O)NCc1ccccc1)c1nc2ccccc2nc1N1CCCC1` (centres undefined), with inactive: 9.57%.
As for `COc1ccc(N(C(=O)c2snc(C(N)=O)c2N)C(C(=O)NCC2CCCO2)c2ccc3ncccc3c2)cc1OC` (centres undefined), the activity change, negative = inhibition is inactive: -0.522%.
Then `CCCN(CC(=O)Nc1ccc(OC)c(OC)c1)CC(=O)Nc1ccc(F)c(F)c1F`, with inactive: -6.81%; and `CCc1cc[n+](-c2nc([O-])sc2C=O)cc1`, with inactive: 18.3%.
For `CC1CCCCC1NC(=S)Nc1ccc(Cl)cc1Cl` (centres undefined), the activity change, negative = inhibition is inactive: -6.59%.
Then `COc1ccccc1N(C)S(=O)(=O)c1ccc(C(=O)OCC(=O)N2CCCCCC2)cc1`, with inactive: -6.24%.
Then `CCn1cc(CN(C)C(=O)/C=C/c2ccc([N+](=O)[O-])cc2)c(C)n1`, with inactive: -8.16%; and `Cc1nccn1C[C@@H]1CCc2c(c3ccccc3n2C)C1=O`, with inactive: -7.4%.
For the compound `Cc1ccccc1NS(=O)(=O)c1ccc(OCCNS(C)(=O)=O)cc1`, the activity change, negative = inhibition is inactive: -5.18%.
Then `CCc1cccc(C)c1NC(=O)CSc1nc(C)c(C)o1`, with inactive: 11%; and `Cc1cc(C)cc(N(C(=O)c2csnn2)C(C(=O)NC(C)(C)C)c2ccncc2)c1` (centres undefined), with inactive: 6.77%; and `O=C(O)c1cc2nc(-c3ccccc3)cc(-c3ccccc3)n2n1`, with inactive: -1.39%.
Then `O=C1CCN(S(=O)(=O)c2ccc(Br)cc2)CCN1`, with inactive: -10.5%.
In the case of `CC(C)Cc1nnc(NS(=O)(=O)c2ccc([N+](=O)[O-])cc2)s1`, the activity change, negative = inhibition was inactive: 5.75%.
Then `COc1ccc(-c2cc(N)n(S(=O)(=O)Cc3ccccc3)n2)c(OC)c1`, with inactive: -1.88%; and `CCN(CC)S(=O)(=O)c1ccc2c(c1)c(=O)c(C(=O)NCCc1ccccc1)cn2C`, with inactive: -18.7%.
Regarding `O=C(C1CC(=O)N(c2ccc(Cl)cc2)C1)N1CCCCCC1` (centres undefined), the activity change, negative = inhibition was inactive: -0.46%.
Turning to `Cc1[nH]cnc1CN1CCc2c(c3ccccc3n2C)C1=O`, the activity change, negative = inhibition is inactive: -11.6%.
Take `Oc1cncc(Cc2ccccc2)c1`: the activity change, negative = inhibition was inactive: 6.96%.
Then `Cc1ccc(S(=O)(=O)NNC(=S)NC(=O)c2ccc([N+](=O)[O-])cc2)cc1`, with inactive: -11.6%; and `Cc1nn2c(=O)c3c4c(sc3nc2n1-c1ccccc1)COC(C)(C)C4`, with inactive: 6.15%.
On to `CCOC(=O)c1cn2nc(Oc3ccc(NC(C)=O)cc3)ccc2n1`, for which the activity change, negative = inhibition was inactive: -15%.
Regarding `O=C(NNC(=O)c1sccc1-n1cccc1)Nc1ccccc1`, the activity change, negative = inhibition is inactive: 11.1%.
Then `Cc1ccc(F)cc1NC(=O)CCc1c(C)[nH]c(=O)c(C#N)c1C`, with inactive: 6.14%; and `c1ccc(N=Nc2ccc3cccccc2-3)cc1`, with inactive: -9.75%.
Then `COC(=O)C1CSC(C(=O)OC)N1C(=O)CN1CCN(c2ccccc2)CC1` (centres undefined), with inactive: -3.34%; and `CN(CC(=O)NC(=O)NC1CCCCC1)CC(=O)Nc1ccc(Cl)cc1`, with inactive: 1.09%; and `Cc1ccc(-n2c(C)cc(C(=O)NS(=O)(=O)c3ccc(C)cc3)c2C)cc1`, with inactive: -0.476%.
Then `O=C(O)CNC(=O)/C(=C\c1ccc2c(c1)OCO2)NC(=O)c1ccc(Br)cc1`, with inactive: 3.73%.
For the compound `CC(=O)c1cccc(NC(=S)N2CCN(S(=O)(=O)c3ccc(F)cc3)CC2)c1`, the activity change, negative = inhibition was inactive: -4.67%.
Then `CCc1c(C(=O)N/N=C/c2sccc2C)nnn1-c1nonc1N`, with inactive: 8.76%; and `Cc1ccc(C)c(N2CCN(C(=O)C(C)n3c(C)c4cnn(-c5ccccc5)c(=O)c4c3C)CC2)c1` (centres undefined), with inactive: 1.33%.
As to `Cc1noc(C)c1C(=O)NCc1cccs1`, the activity change, negative = inhibition was inactive: 5.33%.
Then `Cc1ccc(/C=C2\Sc3ccccc3C2=O)s1`, with inactive: -2.68%; and `CCNC(=S)NC(=NCc1cccnc1)Nc1nc(C)cc(C)n1`, with inactive: -5.55%.
Then `Cc1cc(OCc2cc3c(cc2Cl)OCO3)c2c(C)cc(=O)oc2c1`, with inactive: 19.4%; and `CS(=O)(=O)N1c2cccc3cccc(c23)S1(=O)=O`, with inactive: -3.32%; and `CC(=O)Nc1ccc(S(=O)(=O)Nc2nc3ccccc3nc2Nc2ccc(O)c(C(=O)O)c2)cc1`, with inactive: 83.7%.
Then `CC1(C)CC2CC(C)(CN2C(=O)c2ccc([N+](=O)[O-])cc2)C1` (centres undefined), with inactive: 0.742%.
For the compound `CN(Cc1ccccc1)C(=O)COC(=O)c1cc(=O)[nH]c2ccccc12`, the activity change, negative = inhibition is inactive: -6.97%.
As to `COCCN(Cc1cc2cc(C)ccc2n2nnnc12)C(=S)Nc1ccc(OC)cc1`, the activity change, negative = inhibition was inactive: 3%.
Then `Nc1cnccc1C(=O)O`, with inactive: 33.6%.
Then `CC(=O)Nc1ccc(S(=O)(=O)N2CCCC(C(=O)N3CCN(c4ccccc4)CC3)C2)cc1` (centres undefined), with inactive: 2.26%; and `O=C(CC1C[C@H](C(=O)N2CCOCC2)[C@@]2(CCC3CCCC3)c3[nH]c4ccccc4c3CCN2C1=O)NCC12CC3CC(CC(C3)C1)C2` (some centres undefined), with inactive: -14.2%.
In the case of `C[C@@H]1CN([C@H](C)CO)C(=O)c2cc(NC(=O)Nc3ccc(F)cc3)ccc2O[C@H]1CN(C)C(=O)Nc1ccc(C(F)(F)F)cc1`, the activity change, negative = inhibition was inactive: -15.9%.
Then `CCNC(=S)N1CCC(C(O)(c2ccccc2)c2ccccc2)CC1`, with inactive: 11.6%.
Then `C=CCOc1ccc(C(c2c(C(=O)O)[nH]c3ccccc23)c2c(C(=O)O)[nH]c3ccccc23)cc1`, with inactive: -13.4%; and `Cc1[nH]c2ccc(C(=O)OCC(=O)Nc3cccc(S(N)(=O)=O)c3)cc2c1C`, with inactive: -7.29%.
On to `Cc1cccc(N2C(=O)CC(Cn3nc(C)cc3C)C2=O)c1` (centres undefined), for which the activity change, negative = inhibition is inactive: 3.34%.
Then `COc1ccc(CCNC(=O)CCNC(=O)c2ccco2)cc1`, with inactive: 21.2%; and `Oc1ccc(NCc2ccc(OCc3ccccc3Cl)cc2)cc1`, with inactive: -17%.
Then `CNC(=O)CCSSCCC(=O)NC`, with inactive: 0.288%; and `CSCC[C@H](NC(=O)OC(C)(C)C)C(=O)N1CCC(C(=O)N[C@@H](C)C(=O)NCc2ccc(F)cc2)CC1`, with inactive: -1.72%.

Values taken from PubChem BioAssay AID651803 (National Center for Advancing Translational Sciences (NCATS), 2012).
